According to patent US20220306744A1:
No constants are given. Whether binding was seen depends on the method and setting. Some results given as binding are weak or reduced against the parent protein; the word gives no strength.

By UniProt entry, the sequences of proteins in these tests, tags left out. Where a name states a change or a piece, a line headed by the entry shows the natural chain unless it says otherwise.
UniProt Q15116: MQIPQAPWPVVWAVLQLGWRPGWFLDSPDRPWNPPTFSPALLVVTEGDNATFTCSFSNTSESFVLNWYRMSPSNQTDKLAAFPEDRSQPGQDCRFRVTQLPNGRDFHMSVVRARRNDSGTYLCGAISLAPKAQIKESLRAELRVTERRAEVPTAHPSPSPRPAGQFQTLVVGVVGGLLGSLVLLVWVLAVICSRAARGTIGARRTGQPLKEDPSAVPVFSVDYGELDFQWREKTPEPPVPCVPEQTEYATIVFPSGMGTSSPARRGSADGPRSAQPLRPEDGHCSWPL

B1: 1.1a (VHH)
VHH: EVQLLESGGGSVQPGRSLRLSCAASGFTFDDHAMHWVRQAPGKGLEWVSGISWNSGSMGYADSVKDRFTISRDNAKSSLYLQMNSLRAEDTALYYCVREKGPGLTGSTADYYGLDVWGQGTMVTVSS
B2: 1.51a (VHH)
VHH: EVQLVESGGGVVRPGGSLRLSCAASGFTFDDYAMSWVRQAPGKGLEWVSGITWNGGSTGYADSVKDRFTISRDNAKNSLYLQMNSLRAEDTALYYCVRDKYSYAWSYDGFDIWGQGTMVTVSS
B3: 1.19a (VHH)
VHH: EVQLVESGGGLVQPGRSLRLSCAASGFTFDDYAMHWVRQAPGKDLEWVSGISWNGGSMGYADSVKGRFTISRDNAKNSLYLQMNSLRAEDTALYYCVREKGPGLTGSTADYYGLDVWGQGTMVTVSS
B4: 1.20a (VHH)
VHH: EVQLVESGGGLVQPGRSLRLSCAASGFTFDDYAMHWVRQAPGKDLEWVSGISWNGGSMGYADSVKGRFTISRDNAKNSLYLQMNSLRAEDTALYYCVREKGPGLTGSTADYYGLDVWGQGTMVTVSS
B5: 1.26a (VHH)
VHH: EVQLVESGGGLVQPGRSLRLSCAASGFTFDDYAMHWVRQAPGKDLEWVSGISWNGGSMGYADSVKGRFTISRDNAKNSLYLQMNSLRAEDTALYYCVREKGPGLTGSTADYYGLDAWGQGTMVTVSS
B6: 1.103a (VHH)
VHH: EVQLVESGGGVVRPGGSLRLSCAASGFTFDDYAMSWVRQAPGKGLEWVSGITWNGGSTGYADSVKDRFTISRDNAKNSLYLQMNSLRAEDTALYYCVRDKYSYAWSYDDFDIWGQGTMVTVSS

Tests used:
[1] = molecular target: huPD-1 extracellular domain (PepScan peptide arrays) (human); assay: PepScan ELISA, linear and constrained peptides
[2] = molecular target: huPD-1 extracellular domain (PepScan peptide arrays) (human); assay: PepScan ELISA, discontinuous peptides, bivalent format
[3] = molecular target: human PD-1 expressed on cells (CHO TREX human PD1 cell line, full-length human PD-1 sequence) (human) (UniProt Q15116); assay: worded summary of the screens

Binder	binding [1]	binding [2]	binding [3]
B1	binds	binds	
B2		binds	
B3			binds
B4			binds
B5			binds
B6			binds
